The values that follow come from publication PMC9192764.

The chains behind the UniProt entries cited, without tags or fusion partners. Where a name states a change or a piece, a line headed by the entry shows the natural chain unless it says otherwise.
UniProt P10408: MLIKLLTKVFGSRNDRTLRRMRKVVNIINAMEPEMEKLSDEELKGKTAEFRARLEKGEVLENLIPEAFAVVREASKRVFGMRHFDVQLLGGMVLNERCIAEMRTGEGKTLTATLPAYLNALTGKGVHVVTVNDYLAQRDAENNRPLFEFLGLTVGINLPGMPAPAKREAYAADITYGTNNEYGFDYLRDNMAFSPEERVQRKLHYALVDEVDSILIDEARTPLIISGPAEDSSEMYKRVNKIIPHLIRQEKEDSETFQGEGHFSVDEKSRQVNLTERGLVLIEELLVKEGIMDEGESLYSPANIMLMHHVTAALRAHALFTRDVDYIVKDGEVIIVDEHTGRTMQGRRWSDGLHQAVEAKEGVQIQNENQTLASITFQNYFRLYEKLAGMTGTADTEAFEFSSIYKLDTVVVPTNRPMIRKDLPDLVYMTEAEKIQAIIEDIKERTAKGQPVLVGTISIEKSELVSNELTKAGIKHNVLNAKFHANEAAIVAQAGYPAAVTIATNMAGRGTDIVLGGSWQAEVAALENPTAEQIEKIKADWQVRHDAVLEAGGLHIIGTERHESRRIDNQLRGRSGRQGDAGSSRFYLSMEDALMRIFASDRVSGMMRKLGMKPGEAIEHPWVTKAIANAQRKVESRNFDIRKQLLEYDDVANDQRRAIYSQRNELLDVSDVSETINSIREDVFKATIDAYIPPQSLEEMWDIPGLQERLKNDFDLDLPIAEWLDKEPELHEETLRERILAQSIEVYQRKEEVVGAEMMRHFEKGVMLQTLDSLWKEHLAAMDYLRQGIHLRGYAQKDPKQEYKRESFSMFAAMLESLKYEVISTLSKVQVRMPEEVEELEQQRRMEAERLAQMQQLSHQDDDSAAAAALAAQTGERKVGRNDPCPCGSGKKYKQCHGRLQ
UniProt P0AEG4: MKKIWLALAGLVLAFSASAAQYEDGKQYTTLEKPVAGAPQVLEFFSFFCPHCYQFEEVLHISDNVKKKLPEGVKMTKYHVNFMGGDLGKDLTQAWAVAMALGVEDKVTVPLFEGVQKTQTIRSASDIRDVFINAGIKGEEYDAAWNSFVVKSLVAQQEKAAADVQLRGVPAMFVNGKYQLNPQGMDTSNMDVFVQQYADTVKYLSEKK

These are yes or no findings as the source states them, for the method shown. In cells and extracts the contact can be indirect. A result given as binding can be weak or reduced; the word gives no strength.

For the experiment, the target named is SecA with a C-terminal thrombin-cleavable AviTag (chromosomal) (E. coli (endogenous in strain K-12 W3110)) (UniProt P10408). The experiment in a line: selective ribosome profiling (EDC cross-linking, affinity purification of SecA-bound ribosome-nascent chain complexes, sequencing of ribosome-protected mRNA fragments); cryogenically lysed E. coli W3110 cells; SecA cross-linked to nascent chains in the lysate with 20 mM EDC at room temperature; MNase digestion; monosomes through a sucrose cushion; biotinylated Avi-tagged SecA held on streptavidin magnetic beads, eluted by thrombin; enrichment = SecA interactome over translatome at each codon; two biological replicates; also done in secA∆ZnBD, ∆secB, ∆tig and CCCP-treated cells.

On to “DsbA nascent chain (from UniProt P0AEG4)”, for which the binding entry was “binds”.
